For experiment [1], the system named is hAMSC donor 1. In words: Hoechst total cell count ratio vs vehicle control; higher = more cells (less toxicity).
For experiment [2], the system named is hAMSC donor 2. Described as above.
The test system of experiment [3] is hAMSC donor 1. Description: transgenic luciferase activity (RLU/mg protein) fold change vs vehicle control (ratio); higher = more transgene expression.
Experiment [4] has as its system hAMSC donor 1. Description: transfection efficiency (EGFP+ cells / Hoechst count) fold change vs vehicle control (ratio); hAMSC are human adipose-derived mesenchymal stem cells given an EGFP-luciferase plasmid by lipofection; higher = enhanced transfection.
Experiment [5] concerns hAMSC donor 2. Described as above.
Setting [6] is: priming compound concentration 0.2 µM.
Where [7] appears, read: priming compound concentration 1.7 µM.
Where [8] appears, read: priming compound concentration 13 µM.

Consider eight molecules from the supplement of paper PMC7238544.

Where a name gives a salt, the structure may show the parent alone. ± gives the standard deviation of the averaged measurements. Some of the results follow. The data scatter; read single values as rough.

Regarding `Cc1cccc(C)c1NC(=O)C1CCCCN1C` (centres undefined) [Mepivacaine hydrochloride], the “Hoechst total cell count ratio” value came out at 1.56 ± 0.14 in the experiment on hAMSC donor 1 [1] (setting [6]); 1.21 ± 0.14 in the experiment on hAMSC donor 1 [1] (setting [7]); 1.28 ± 0.093 in the experiment with hAMSC donor 1 [1] (setting [8]); 1.19 ± 0.042 with hAMSC donor 2 [2] (setting [6]); 1.36 ± 0.13 with hAMSC donor 2 [2] (setting [7]); 0.931 ± 0.3 with hAMSC donor 2 [2] (setting [8]). The transgenic luciferase activity in the experiment on hAMSC donor 1 [3] (setting [7]) was 0.721 ± 0.19. Moreover, the transfection efficiency in the experiment with hAMSC donor 1 [4] (setting [6]) is 1.28 ± 0.27; in the experiment with hAMSC donor 1 [4] (setting [7]), 1.07 ± 0.25; in the experiment with hAMSC donor 1 [4] (setting [8]), 1.14 ± 0.17; in the experiment on hAMSC donor 2 [5] (setting [6]) it was 0.891 ± 0.17; with hAMSC donor 2 [5] (setting [7]), 1.12 ± 0.1; in the experiment on hAMSC donor 2 [5] (setting [8]), 1.35 ± 0.091.
On to `O=C1CCc2ccc(OCCCCN3CCN(c4cccc(Cl)c4Cl)CC3)cc2N1` [Aripiprazole], for which the “Hoechst total cell count ratio” value came to 1.2 ± 0.14 in the experiment with hAMSC donor 1 [1] (setting [6]); 1.48 ± 0.12 in the experiment on hAMSC donor 1 [1] (setting [7]); 1.148 ± 0.0091 in the experiment on hAMSC donor 1 [1] (setting [8]); 1.14 ± 0.16 with hAMSC donor 2 [2] (setting [6]); 1.13 ± 0.085 in the experiment on hAMSC donor 2 [2] (setting [7]); 1.54 ± 0.19 in the experiment on hAMSC donor 2 [2] (setting [8]). The transgenic luciferase activity in the experiment with hAMSC donor 1 [3] (setting [6]) is 1.04 ± 0.24. Further, the transfection efficiency amounted to 0.946 ± 0.32 in the experiment on hAMSC donor 1 [4] (setting [6]); 0.802 ± 0.12 with hAMSC donor 1 [4] (setting [7]); 0.731 ± 0.091 with hAMSC donor 1 [4] (setting [8]); 0.958 ± 0.062 in the experiment on hAMSC donor 2 [5] (setting [6]); 0.98 ± 0.014 with hAMSC donor 2 [5] (setting [7]); 0.581 ± 0.11 in the experiment on hAMSC donor 2 [5] (setting [8]).
With `CC[C@@]1(O)C(=O)OCc2c1cc1n(c2=O)Cc2cc3c(CN(C)C)c(O)ccc3nc2-1` [Topotecan hydrochloride], the “Hoechst total cell count ratio” value with hAMSC donor 1 [1] (setting [6]) worked out at 0.942 ± 0.16; with hAMSC donor 1 [1] (setting [7]), 0.697 ± 0.038; in the experiment on hAMSC donor 1 [1] (setting [8]), 0.741 ± 0.13; in the experiment with hAMSC donor 2 [2] (setting [6]) it was 0.697 ± 0.18; in the experiment with hAMSC donor 2 [2] (setting [7]), 0.541 ± 0.16; in the experiment on hAMSC donor 2 [2] (setting [8]) it was 0.414 ± 0.11. The transgenic luciferase activity with hAMSC donor 1 [3] (setting [8]) came out at 0.861 ± 0.16. The transfection efficiency was found to be 0.987 ± 0.072 with hAMSC donor 1 [4] (setting [6]); 1.33 ± 0.21 in the experiment on hAMSC donor 1 [4] (setting [7]); 1.63 ± 0.59 with hAMSC donor 1 [4] (setting [8]); 1.4 ± 0.19 in the experiment with hAMSC donor 2 [5] (setting [6]); 1.63 ± 0.071 in the experiment on hAMSC donor 2 [5] (setting [7]); 1.67 ± 0.2 in the experiment on hAMSC donor 2 [5] (setting [8]).
In the case of `Nc1ccc2cn[nH]c2c1` [6-Aminoindazole], the “Hoechst total cell count ratio” value with hAMSC donor 1 [1] (setting [6]) was 1.32 ± 0.15; with hAMSC donor 1 [1] (setting [7]) it was 1.41 ± 0.2; in the experiment with hAMSC donor 1 [1] (setting [8]), 1.24 ± 0.16; in the experiment with hAMSC donor 2 [2] (setting [6]), 0.988 ± 0.035; in the experiment with hAMSC donor 2 [2] (setting [7]), 0.823 ± 0.097; in the experiment with hAMSC donor 2 [2] (setting [8]), 1.15 ± 0.35. In the experiment on hAMSC donor 1 [3] (setting [6]), the transgenic luciferase activity worked out at 1.25 ± 0.35. In addition, the transfection efficiency with hAMSC donor 1 [4] (setting [6]) worked out at 0.988 ± 0.14; in the experiment with hAMSC donor 1 [4] (setting [7]), 0.857 ± 0.23; with hAMSC donor 1 [4] (setting [8]), 1.01 ± 0.15; with hAMSC donor 2 [5] (setting [6]) it was 1.15 ± 0.056; in the experiment on hAMSC donor 2 [5] (setting [7]), 1.18 ± 0.1; in the experiment on hAMSC donor 2 [5] (setting [8]) it was 0.931 ± 0.19.
As for `CCc1oc2ccccc2c1C(=O)c1cc(Br)c(O)c(Br)c1` [Benzbromarone], the “Hoechst total cell count ratio” value in the experiment on hAMSC donor 1 [1] (setting [6]) is 1.31 ± 0.074; in the experiment on hAMSC donor 1 [1] (setting [7]) it was 1.28 ± 0.017; with hAMSC donor 1 [1] (setting [8]), 1.24 ± 0.077; in the experiment with hAMSC donor 2 [2] (setting [6]), 1.1 ± 0.38; with hAMSC donor 2 [2] (setting [7]), 1.05 ± 0.41; in the experiment on hAMSC donor 2 [2] (setting [8]) it was 1.24 ± 0.11. Besides, the transgenic luciferase activity in the experiment with hAMSC donor 1 [3] (setting [8]) turned out to be 0.626 ± 0.26. The transfection efficiency in the experiment on hAMSC donor 1 [4] (setting [6]) was found to be 1.23 ± 0.17; with hAMSC donor 1 [4] (setting [7]) it was 0.824 ± 0.042; in the experiment on hAMSC donor 1 [4] (setting [8]) it was 0.973 ± 0.37; with hAMSC donor 2 [5] (setting [6]), 1.16 ± 0.26; with hAMSC donor 2 [5] (setting [7]) it was 1.36 ± 0.52; in the experiment with hAMSC donor 2 [5] (setting [8]) it was 0.837 ± 0.049.
Consider `Nc1nnc(-c2cccc(Cl)c2Cl)c(N)n1` [Lamotrigine], for which the “Hoechst total cell count ratio” value was 1.15 ± 0.075 in the experiment with hAMSC donor 1 [1] (setting [6]); 1.08 ± 0.061 in the experiment on hAMSC donor 1 [1] (setting [7]); 1.08 ± 0.016 in the experiment with hAMSC donor 1 [1] (setting [8]); 1.23 ± 0.094 with hAMSC donor 2 [2] (setting [6]); 0.647 ± 0.047 with hAMSC donor 2 [2] (setting [7]); 0.814 ± 0.22 in the experiment on hAMSC donor 2 [2] (setting [8]). Further, the transgenic luciferase activity in the experiment with hAMSC donor 1 [3] (setting [8]) was determined as 0.559 ± 0.25. The transfection efficiency in the experiment with hAMSC donor 1 [4] (setting [6]) came out at 0.758 ± 0.025; in the experiment on hAMSC donor 1 [4] (setting [7]) it was 1.15 ± 0.21; in the experiment with hAMSC donor 1 [4] (setting [8]), 0.864 ± 0.46; in the experiment on hAMSC donor 2 [5] (setting [6]) it was 1.01 ± 0.26; in the experiment on hAMSC donor 2 [5] (setting [7]), 1.29 ± 0.27; in the experiment with hAMSC donor 2 [5] (setting [8]), 1.08 ± 0.061.
Turning to `Cc1ncc([N+](=O)[O-])n1CC(O)CCl` (centres undefined) [Ornidazole], the “Hoechst total cell count ratio” value with hAMSC donor 1 [1] (setting [6]) worked out at 1.2 ± 0.031; in the experiment with hAMSC donor 1 [1] (setting [7]), 1.2 ± 0.07; with hAMSC donor 1 [1] (setting [8]), 1.38 ± 0.14; in the experiment on hAMSC donor 2 [2] (setting [6]) it was 0.958 ± 0.29; in the experiment on hAMSC donor 2 [2] (setting [7]), 1.3 ± 0.35; with hAMSC donor 2 [2] (setting [8]), 1.55 ± 0.31. For the same molecule, the transgenic luciferase activity with hAMSC donor 1 [3] (setting [8]) is 0.677 ± 0.047. Besides, the transfection efficiency with hAMSC donor 1 [4] (setting [6]) is 0.958 ± 0.15; in the experiment on hAMSC donor 1 [4] (setting [7]) it was 1.45 ± 0.1; in the experiment with hAMSC donor 1 [4] (setting [8]), 0.977 ± 0.12; in the experiment with hAMSC donor 2 [5] (setting [6]), 1.27 ± 0.11; in the experiment with hAMSC donor 2 [5] (setting [7]) it was 1.05 ± 0.18; with hAMSC donor 2 [5] (setting [8]), 0.651 ± 0.088.
For the molecule `Cc1nccn1CC1CCc2c(c3ccccc3n2C)C1=O` (centres undefined) [Ondansetron], the “Hoechst total cell count ratio” value was 1.36 ± 0.17 in the experiment on hAMSC donor 1 [1] (setting [6]); 1.28 ± 0.23 in the experiment on hAMSC donor 1 [1] (setting [7]); 1.249 ± 0.004 in the experiment on hAMSC donor 1 [1] (setting [8]); 0.636 ± 0.15 with hAMSC donor 2 [2] (setting [6]); 1.17 ± 0.13 in the experiment with hAMSC donor 2 [2] (setting [7]); 1.02 ± 0.35 in the experiment on hAMSC donor 2 [2] (setting [8]). Moreover, the transgenic luciferase activity with hAMSC donor 1 [3] (setting [7]) is 0.825 ± 0.18. Moreover, the transfection efficiency in the experiment on hAMSC donor 1 [4] (setting [6]) was 1.18 ± 0.31; in the experiment on hAMSC donor 1 [4] (setting [7]) it was 0.99 ± 0.29; in the experiment with hAMSC donor 1 [4] (setting [8]), 1.15 ± 0.17; with hAMSC donor 2 [5] (setting [6]), 1.38 ± 0.39; in the experiment on hAMSC donor 2 [5] (setting [7]) it was 1.05 ± 0.11; in the experiment on hAMSC donor 2 [5] (setting [8]), 1 ± 0.17.
